Measured values reported in paper doi:10.1101/2021.05.23.445325 (bioRxiv, 2021).
These are yes or no findings as the source states them, for the method shown. Binding seen in cells or lysates may run through a third protein. Some results given as binding are weak or reduced against the parent protein; the word gives no strength. For some assays here: Tags and fused reporters may be left off the sequences shown.

Chains of the proteins cited; added tags and fusions are not shown. Lines headed by an entry give the natural chain unless they say otherwise; changes in a name come on top. Residues count along the entry.
UniProt Q07955: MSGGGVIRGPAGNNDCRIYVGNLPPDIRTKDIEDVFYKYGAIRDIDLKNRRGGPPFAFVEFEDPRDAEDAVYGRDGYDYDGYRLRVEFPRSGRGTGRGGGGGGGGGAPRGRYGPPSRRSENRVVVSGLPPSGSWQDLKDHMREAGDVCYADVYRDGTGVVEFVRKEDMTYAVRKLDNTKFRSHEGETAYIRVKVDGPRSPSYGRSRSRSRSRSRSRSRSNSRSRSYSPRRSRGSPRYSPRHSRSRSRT
GST-SRSF1 fusion, amino-acids 89-120 (linker between the two RNA recognition motifs): residues 89-120 of Q07955

T1: FLAG-tagged NXF1 (UniProt Q9UBU9)
T1 sequence: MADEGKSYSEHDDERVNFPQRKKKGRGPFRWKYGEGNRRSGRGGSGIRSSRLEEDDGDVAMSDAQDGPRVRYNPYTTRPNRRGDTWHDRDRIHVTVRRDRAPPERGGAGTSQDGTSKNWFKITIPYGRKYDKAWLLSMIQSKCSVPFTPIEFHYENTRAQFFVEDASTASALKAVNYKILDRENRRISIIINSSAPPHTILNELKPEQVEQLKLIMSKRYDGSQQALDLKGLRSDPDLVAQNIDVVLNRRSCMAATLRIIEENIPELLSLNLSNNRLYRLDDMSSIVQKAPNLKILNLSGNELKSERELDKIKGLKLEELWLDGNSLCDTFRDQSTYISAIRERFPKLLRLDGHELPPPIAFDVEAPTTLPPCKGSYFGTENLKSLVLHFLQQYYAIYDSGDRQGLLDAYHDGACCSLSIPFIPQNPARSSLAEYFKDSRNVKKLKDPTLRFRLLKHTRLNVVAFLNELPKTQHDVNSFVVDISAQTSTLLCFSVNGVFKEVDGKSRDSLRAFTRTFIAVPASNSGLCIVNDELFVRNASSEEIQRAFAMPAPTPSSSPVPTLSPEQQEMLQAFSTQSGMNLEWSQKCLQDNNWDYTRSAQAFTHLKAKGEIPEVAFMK

T2: GST-NXF1:p15 complex (UniProt Q9UBU9)
T2 sequence 1: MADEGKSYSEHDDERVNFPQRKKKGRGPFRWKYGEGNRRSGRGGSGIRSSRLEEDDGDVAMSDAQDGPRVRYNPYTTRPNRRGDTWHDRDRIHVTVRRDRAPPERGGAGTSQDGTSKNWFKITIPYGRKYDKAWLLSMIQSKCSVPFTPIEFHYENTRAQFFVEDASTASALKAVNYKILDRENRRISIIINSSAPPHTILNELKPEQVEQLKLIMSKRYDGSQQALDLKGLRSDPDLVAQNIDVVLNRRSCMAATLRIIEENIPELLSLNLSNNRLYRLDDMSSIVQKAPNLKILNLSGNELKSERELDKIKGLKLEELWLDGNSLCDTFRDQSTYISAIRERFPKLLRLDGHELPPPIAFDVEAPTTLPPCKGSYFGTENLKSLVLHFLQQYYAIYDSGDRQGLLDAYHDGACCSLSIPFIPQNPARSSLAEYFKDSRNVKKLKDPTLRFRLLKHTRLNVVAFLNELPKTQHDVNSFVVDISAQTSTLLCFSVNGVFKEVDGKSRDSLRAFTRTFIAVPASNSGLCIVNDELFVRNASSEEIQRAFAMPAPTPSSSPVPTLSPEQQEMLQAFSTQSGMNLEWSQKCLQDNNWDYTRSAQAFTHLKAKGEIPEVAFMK
T2 sequence 2: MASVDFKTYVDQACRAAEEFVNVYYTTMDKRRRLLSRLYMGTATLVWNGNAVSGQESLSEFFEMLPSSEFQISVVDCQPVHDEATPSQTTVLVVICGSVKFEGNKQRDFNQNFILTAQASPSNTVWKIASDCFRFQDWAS


Columns and labels:
[1] = biological target: T1, FLAG-tagged NXF1; test: co-IP
[2] = biological target: T2, GST-NXF1:p15 complex; test: pull-down
[3] = biological target: GST-SRSF1 fusion, amino-acids 89-120 (linker between the two RNA recognition motifs) (UniProt Q07955); test: pull-down

| binding [3] | Molecule | binding [1] | binding [2] |
| --- | --- | --- | --- |
| – | SRSF1 WT-CPP (SRSF1 aa89-120, V5 tag, TAT protein transduction domain) (from UniProt Q07955 89-120; P04608 47-57) (peptide) | binds | binds |
| – | endogenous SRSF1 (from UniProt Q07955 1-248) | binds | – |
| – | full length mammalian SRSF1 synthesized in rabbit reticulocytes (from UniProt Q07955 1-248) | – | binds |
| binds | 35S-methionine radiolabeled NXF1 amino-terminal RNA-binding region (aa 1-198) (domain or fragment, UniProt Q9UBU9 1-198, 35S-methionine radiolabel) MADEGKSYSEHDDERVNFPQRKKKGRGPFRWKYGEGNRRSGRGGSGIRSSRLEEDDGDVAMSDAQDGPRVRYNPYTTRPNRRGDTWHDRDRIHVTVRRDRAPPERGGAGTSQDGTSKNWFKITIPYGRKYDKAWLLSMIQSKCSVPFTPIEFHYENTRAQFFVEDASTASALKAVNYKILDRENRRISIIINSSAPPH | – | – |
